Results from PubChem BioAssay AID2685 (National Center for Advancing Translational Sciences (NCATS), 2010).
The campaign covered roughly 320,000 compounds. About 2,100 (0.66%) were called active. Inconclusive means that the source gave no clear call. Such entries were picked first, then a sample of the others. The call rests on the fitted dose curve; in most records, active means well fitted inhibition curve with a large enough effect in the signal ratio, with a control signal flat (not every such curve was filed as active); inconclusive means small, poorly fitted or top-dose-only effect, or effect the other way, or a change in a side signal; inactive means flat fitted curve, though single readings scatter; the % refers to the signal ratio. A potency beside an inconclusive call is a rough fit, not a confirmed value.

Assay: qHTS Assay for Lipid Storage Modulators in Drosophila S3 Cells
Conditions: BODIPY lipid droplet fluorescence, 18-24 h, cells fed with added oleic acid; lipid storage change, negative = inhibition: at 46.1 µM (top of the series) unless noted
How it was run: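 Laser-scanning cytometry quantifies lipid droplet accumulation (500–530 nm total intensity; droplet/cell object ratio) in oleic acid-fed (400 uM added) Drosophila S3 cells treated with a concentration series. 20 uM Triacsin C defined 100% inhibition.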
On the % scale 0 is the no-effect control and ±100 the full control effect; potency means the concentration at half of the fitted maximal effect.

| SMILES | Potency | lipid storage change, negative = inhibition |
| --- | --- | --- |
| CCOc1ccc(CCNC(=O)c2ccc(OCc3c(C)noc3C)cc2)cc1OCC | active: 11.6 µM |  |
| CCCc1nnc(NC(=O)CCC(=O)N2CCN(Cc3cc(Cl)ccc3OC)CC2)s1 |  | inconclusive: 103% |
| COc1cccc(C2=CC(c3cc(OC)ccc3OC)n3nnnc3N2)c1 (stereo unspecified) | inconclusive: 0.517 µM [activator, full curve] |  |
| COC(=O)c1ccccc1NC(=O)CN(c1ccc(C)cc1)S(C)(=O)=O |  | inconclusive: 3.82% |
| O=C(c1ccc(F)cc1)N1CCC(N2CCCCCC2)CC1 |  | inconclusive: -42.4% |
| CCOC(=O)CCCCC(=O)c1[nH]c(=O)[nH]c1CSc1nnc2c3ccccc3n(C(C)C)c2n1 |  | inconclusive: -3.36% |
| O=C(COC(=O)/C=C/c1ccc(Br)o1)NCCCN1CCCC1=O |  | inconclusive: 29.3% |
| CCOc1ccc(NC(=O)CSc2nnc(-c3ccncc3)n2CC2CCCO2)cc1 (stereo unspecified) |  | inconclusive: 5.48% |
| CCOc1ccc(/C=C2\CCC(C3CCCC3)C2=O)cc1OC (stereo unspecified) |  | inconclusive: 36.6% |
| Cc1ccc(S(=O)(=O)c2nc(C)oc2NCc2ccccc2)cc1 | inconclusive: 20.6 µM [rising, single point] |  |
| Cc1ccc(C)c(NC(=S)NNC(=O)c2csc3c2CCC(C)C3)c1 (stereo unspecified) | inconclusive: 0.731 µM [falling, single point] |  |
| O=C(NC(=S)Nc1ccc2nc[nH]c2c1)c1ccccc1 |  | inconclusive: -8.72% |
| COc1ccc2[nH]c3c(c2c1)CCNC3C1CC=C(C)CC1 (stereo unspecified) |  | inconclusive: 32.9% |
| CN(C(=S)Nc1ccccc1F)C1(c2ccccc2Cl)CCCCC1=O (stereo unspecified) |  | inconclusive: -26.3% |
| CCOC(=O)CCCNC(=O)CCNC(=O)c1ccc(OCC(C)C)cc1 |  | inconclusive: -13.8% |
| COC(=O)CCSCC(=O)N1N=C(c2ccc(Br)cc2)CC1c1cccc(OC)c1OC (stereo unspecified) |  | inconclusive: 25% |
| Nn1c(SCC(=O)Nc2ccc3c(c2)OCO3)nnc1-c1ccncc1 |  | inconclusive: 104% |
| COc1ccccc1NC(=O)CSc1nc2[nH]ncc2c(=O)[nH]1 |  | inconclusive: -30.7% [at 0.0737 µM] |
| Cc1cc(C)c(O)c(-c2cc(C(=O)NCCc3ccc(S(N)(=O)=O)cc3)[nH]n2)c1 |  | inconclusive: 20% |
| N#C/C(=C\c1c[nH]c2ccccc12)C(=O)NC1CCCC1 | inconclusive: 29.1 µM [falling, single point] |  |
| COc1ccc(Nc2nc(NCCO)nc(OC)n2)cc1 | inconclusive: 29.1 µM [activator, single point] |  |
| Cc1ccc(S(=O)(=O)NC(C)C(=O)Nc2cccc([N+](=O)[O-])c2)cc1 (stereo unspecified) |  | inconclusive: 4.56% |
| O=C(c1cccnc1)N1CCN(S(=O)(=O)c2ccc(Cl)cc2)CC1 |  | inactive: -0.561% |
| COc1ccc2c(c1)c1nnc(SCC(=O)NC3CC3)nc1n2C | active: 1.46 µM |  |
| O=C(CCCc1ccccc1)NCCN1CCOCC1 | inconclusive: 0.184 µM [falling, full curve] |  |
| O=C1c2ccccc2C(=O)N1CC(=O)N1c2ccccc2Sc2ccc(C(F)(F)F)cc21 |  | inconclusive: 2.08% |

| SMILES | Potency | lipid storage change, negative = inhibition |
| --- | --- | --- |
| OCCN1CCN(c2ncnc3sc(-c4ccccc4)cc23)CC1 |  | inconclusive: -1.77% |
| CC1CCCN(C(=O)c2nn(C)c3c2CS(=O)(=O)c2ccccc2-3)C1 (stereo unspecified) | inconclusive: 0.0046 µM [activator, full curve, poor fit] |  |
| O=C(NCc1cccs1)C1CC(c2ccc(Cl)cc2)=NO1 (stereo unspecified) |  | inconclusive: 14.4% |
| CC(C)Oc1cccc(C(=O)C2CCCN(C(=O)c3ccsc3)C2)c1 (stereo unspecified) | active: 18.4 µM |  |
| O=C(NCC1OCCc2ccccc21)c1ccc(NC(=O)c2ccc(Cl)cc2Cl)cc1 (stereo unspecified) | inconclusive: 29.1 µM [falling, single point] |  |
| O=C1Oc2ccccc2C(=O)/C1=C\N1CCN(c2ccccc2)CC1 |  | inconclusive: -20.9% |
| Cc1ccc(-n2nnnc2SCC(=O)Nc2ccccc2-c2ccccc2)cc1C |  | inconclusive: -25.9% |
| O=C(CCc1ccccc1)N1CCN(CCO)CC1 |  | inconclusive: -35.1% |
| CC(C)c1ccc2[nH]c(O)c(N=NC(=O)c3cccc(S(=O)(=O)Nc4ccc(Cl)cc4)c3)c2c1 |  | inconclusive: 0.706% |
| Cc1nc2ccccc2c(=O)n1/N=C/c1ccccc1F |  | inconclusive: 13.6% |
| O=C(CCC(=O)N1CCN(C2CCCCC2)CC1)Nc1nnc(C(F)(F)F)s1 | inconclusive: 20.6 µM [cytotoxic, partial curve] |  |
| COc1ccc(NC(=O)c2ccc(-n3cccn3)c([N+](=O)[O-])c2)cc1 |  | inconclusive: 4.33% |
| CC1CCCN(C(=O)CNC(=O)c2cccs2)C1 (stereo unspecified) | inconclusive: 0.0046 µM [falling, full curve, poor fit] |  |
| O=C(Nc1nc(-c2ccc(Cl)cc2)cs1)C1=COCCO1 | active: 9.2 µM |  |
| CCCCn1c(SCC(=O)N2CCCc3ccccc32)nc2c1c(=O)n(C)c(=O)n2C |  | inconclusive: -41.9% |
| Cc1ccc(C(=O)NC(=S)Nc2ccc(N3CCOCC3)cc2)cc1 | inconclusive: 0.0046 µM [falling, full curve, poor fit] |  |
| NC(=O)CC(NC(=O)c1ccc(Br)cc1)c1ccc(NC2CCCCCC2)c([N+](=O)[O-])c1 (stereo unspecified) |  | inconclusive: -94.5% |
| Cc1ccc(S(=O)(=O)N(C)C)cc1NC(=O)COC(=O)CCNS(=O)(=O)c1ccccc1 | inconclusive: 4.61 µM [activator, full curve, poor fit] |  |
| COc1ccc(C2=NN(C(=O)CSc3nc(=O)n4cccc(C)c4n3)C(c3ccc(C)cc3)C2)cc1 (stereo unspecified) | inconclusive: 2.31 µM [rising, full curve] |  |
| O=C(COC(=O)CNS(=O)(=O)c1ccccc1)Nc1ncc(Cl)cc1Cl |  | inconclusive: 7.02% |
| Cn1c(Cn2c(=O)sc3ccccc32)nnc1SCc1cccnc1 |  | inconclusive: 3.22% |
| COC(=O)c1c(NC(=O)COC(=O)[C@@H](NS(=O)(=O)c2cccc(Cl)c2)C(C)C)sc2c1CCC2 |  | inconclusive: 12.7% |
| Cc1cccc(COc2ccc(/C=N/NC(=O)c3nnn(-c4nonc4N)c3COc3ccc(F)cc3)cc2)c1 |  | inconclusive: 23.5% |
| CCOc1ccc(NC(=O)CN(C)C(=O)Cc2ccsc2)cc1OCC |  | inconclusive: 5.46% |
| Cc1ccc(O)c(-c2cc(-c3ccccc3F)[nH]n2)c1 | inconclusive: 3.26 µM [falling, partial curve, poor fit] |  |
| Cc1nc2ccccc2cc1OCc1ccc(Cl)cc1 |  | inconclusive: -71% |

Some of the entries so far, field by field.
CC(C)Oc1cccc(C(=O)C2CCCN(C(=O)c3ccsc3)C2)c1 (stereo unspecified)
  Potency: active: 18.4 µM
Cc1cccc(COc2ccc(/C=N/NC(=O)c3nnn(-c4nonc4N)c3COc3ccc(F)cc3)cc2)c1
  lipid storage change, negative = inhibition: inconclusive: 23.5%
CCOc1ccc(NC(=O)CN(C)C(=O)Cc2ccsc2)cc1OCC
  lipid storage change, negative = inhibition: inconclusive: 5.46%

Remaining list, next part

| SMILES | Potency | lipid storage change, negative = inhibition |
| --- | --- | --- |
| OCCN(Cc1ccccc1)CC1CC2C=CC1C2 (stereo unspecified) | active: 29.1 µM |  |
| O=[N+]([O-])c1ccc(CSC2=NCCS2)cc1 | inconclusive: 5.8 µM [falling, single point] |  |
| COC(=O)C(C)NC(=O)COc1ccc2ccccc2c1 (stereo unspecified) | inconclusive: 0.116 µM [falling, full curve, poor fit] |  |
| O=C(N/N=C/c1ccncc1)c1cccc([N+](=O)[O-])c1 |  | inconclusive: 8.81% |
| CC(=O)Nc1cccc(NC(=O)c2ccccc2OCc2ccccc2)c1 | active: 0.103 µM |  |
| COC(=O)/C=C1/S/C(=N/NC(=O)c2ccccc2OC)NC1=O |  | inconclusive: 207% |
| Cc1cc(CN(C)C(=O)c2ccc(OC3CCN(Cc4ccccn4)CC3)cc2)on1 | inconclusive: 0.461 µM [falling, partial curve, poor fit] |  |
| COc1cc(/C=N/NS(=O)(=O)c2ccc(Br)cc2)ccc1O | inconclusive: 8.2 µM [activator, partial curve] |  |
| COCCNC(=O)c1csc(Nc2cccc3ccccc23)n1 |  | inconclusive: -18.6% |
| O=C(Nc1ccncc1)c1cc(-c2ccccn2)nc2ccc(Br)cc12 |  | inconclusive: 163% |
| COc1cccc(C(=O)Cn2c(Br)nc3c2c(=O)n(C)c(=O)n3C)c1 | inconclusive: 29.1 µM [rising, single point] |  |
| COCC1CCN(C(=O)c2cc(COc3ccc(C)c(C)c3)on2)C1 (stereo unspecified) | inconclusive: 1.64 µM [activator, partial curve] |  |
| Clc1ccccc1C1=Nn2c(nnc2-c2ccncc2)SC1 |  | inconclusive: -7.6% |
| COc1ccc(/C(O)=C2/C(=O)C(=O)N(c3ncccn3)C2c2ccc(F)cc2)cc1 (stereo unspecified) |  | inconclusive: -53.2% |
| COc1cc(NC(=O)CCc2c(C)[nH]c(=O)c(C#N)c2C)cc(OC)c1 | active: 0.058 µM |  |
| CC(OC(=O)c1cc(=O)[nH]c2ccccc12)C(=O)NC1CCCCC1C (stereo unspecified) |  | inconclusive |
| COc1ccc(C(=O)C[n+]2cccc3cc(C)ccc32)cc1 | inconclusive: 13 µM [falling, single point] |  |
| O=C(CSc1nnc(-c2ccco2)n1Cc1ccccc1)c1ccc(F)cc1 | inconclusive: 23.1 µM [activator, single point] |  |
| COc1ccc(-c2csc(NC(=O)C(CC(=O)O)N3CCOCC3)n2)cc1 (stereo unspecified) | inconclusive: 29.1 µM [activator, single point] |  |
| O=C(NCCc1cccs1)C1CC(c2ccccc2[N+](=O)[O-])=NO1 (stereo unspecified) |  | inconclusive: -36.9% |
| COc1ccccc1NC(=O)c1ccc2c(c1)C(=O)N(c1ccccc1OC)C2=O |  | inconclusive: -14.3% |
| O=C(CSc1nnc2c(n1)[nH]c1ccccc12)Nc1ccc(N2CCOCC2)cc1 |  | inconclusive: -8.49% |
| CC(=O)c1ccc(N2CCN(C(=O)c3cc4c(-c5ccccc5F)nn(C)c4s3)CC2)cc1 | inconclusive: 16.4 µM [rising, single point] |  |
| CC(=O)Nc1ccc(C(=O)OCC(=O)N(c2ccccc2)C2CCS(=O)(=O)C2)cc1 (stereo unspecified) |  | inconclusive: 5.25% |
